In patent publication US20220062291A1, “COMPOSITIONS AND METHODS OF TREATING CANCERS BY ADMINISTERING A PHENOTHIAZINE-RELATED DRUG THAT ACTIVATES PROTEIN PHOSPHATASE 2A (PP2A) WITH REDUCED INHIBITORY ACTIVITY TARGETED TO THE DOPAMINE D2 RECEPTOR AND ACCOMPANYING TOXICITY” (DANA-FARBER CANCER INSTITUTE, INC., priority 2018, published 2022):
At least one compound was matched to its structure with a doubt left.

The chains behind the UniProt entries cited, without tags or fusion partners.
UniProt P14416, whole entry: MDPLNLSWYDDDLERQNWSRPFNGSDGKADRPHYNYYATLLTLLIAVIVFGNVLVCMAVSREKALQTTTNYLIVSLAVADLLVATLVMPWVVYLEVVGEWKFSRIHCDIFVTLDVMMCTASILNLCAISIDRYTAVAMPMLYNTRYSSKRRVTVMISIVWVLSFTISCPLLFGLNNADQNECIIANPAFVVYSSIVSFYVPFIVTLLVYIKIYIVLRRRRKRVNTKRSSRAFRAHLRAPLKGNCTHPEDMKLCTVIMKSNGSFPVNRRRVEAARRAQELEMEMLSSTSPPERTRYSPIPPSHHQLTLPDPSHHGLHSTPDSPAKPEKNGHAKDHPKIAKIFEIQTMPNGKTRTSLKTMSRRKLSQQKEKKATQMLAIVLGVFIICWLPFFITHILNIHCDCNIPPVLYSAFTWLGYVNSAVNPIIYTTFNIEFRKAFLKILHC

Molecular target: T1, human dopamine receptor D2 (DRD2) (Homo sapiens, UniProt P14416)
T1 construct: expressed in transfected cells; host or cells: HEK293T (pcDNA3 vectors)
Assay: Dopamine receptor D2 inhibition assay (SRE-luciferase reporter in HEK293T cells)
Type: cell-based
Details: 0.5 μM for three hours with 2 μM dopamine
Excerpt: The human dopamine receptor D2 (DRD2) and modified murine Gq5i cDNAs were inserted into pcDNA3 expression vectors. After verifying the PCR products by DNA sequencing, DRD2, Gq5i and the PathDetect pSRE-Luc Cis-Reporter Plasmid (#219080, Agilent Technologies) were transfected to HEK293T cells. As previously reported, Gq5i enables Gi/o-coupled receptor activity to be detected using a serum response element (SRE)-luciferase reporter gene (See, Conklin et al., Nature 363(6426):274-6 (1993); Al-Fulaij et al., J. Pharmacol. Exp. Ther. 321(1):298-307 (2007)). […] The reporter activity was measured using Pierce™ Firefly Luciferase Glow Assay Kit (Thermo Fisher Scientific).
For IC50 calculation, KOPT-K1 cells were treated with each of the compounds at various concentrations for 72 hours, followed by the determination of viable cell numbers with PrestoBlue® cell viability reagent. For the PP2A phosphatase activity assay, KOPT-K1 cells were treated with each of the compounds at 10 μM for 3 hours before phosphatase activity was measured. Dopamine D2 receptor activity was monitored in HEK293T cells coexpressing the dopamine D2 receptor, modified G protein and SRE luciferase reporter. […]
The human dopamine receptor D2 and modified murine Gq5i cDNAs were inserted into pcDNA3 expression vectors. […] The reporter activity was measured using Pierce™ Firefly Luciferase Glow Assay Kit (Thermo Fisher Scientific).

## CCCCCCCCc1ccc(CCC(N)(CO)CO)cc1 [fingolimod, reference compound]
  inhibitory activities on DRD2: did not show inhibitory activities on DRD2
